No constants are given. Whether binding was seen depends on the method and setting. In cells and extracts the contact can be indirect. Here binding means that the protein was enriched with, or labelled near, the bait; the list need not be complete. For part of these data: Sequences can lack the tags named with a protein.
Assays:
[1] = target: T1, Cbp3-BirA* (S. cerevisiae) (UniProt P21560); assay: proximity labelling; Bio-ID: C-terminal BirA* fusions in yeast grown overnight in YPG or YPGal with 50 μM biotin; mitochondria lysed in 1% SDS, streptavidin beads, mass spectrometry; compared to a Kgd4-BirA* control, or WT compared to mrx4Δ
T1 sequence: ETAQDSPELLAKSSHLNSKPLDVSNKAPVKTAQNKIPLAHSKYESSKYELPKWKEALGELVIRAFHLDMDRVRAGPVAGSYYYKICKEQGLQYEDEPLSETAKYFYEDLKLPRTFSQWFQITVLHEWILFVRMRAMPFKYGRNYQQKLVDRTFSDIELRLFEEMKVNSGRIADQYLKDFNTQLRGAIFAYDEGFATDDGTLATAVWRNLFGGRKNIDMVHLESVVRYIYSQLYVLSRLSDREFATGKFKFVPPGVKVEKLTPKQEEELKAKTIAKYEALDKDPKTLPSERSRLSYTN

[2] = target: T2, Cbp3-ALFA (S. cerevisiae) (UniProt P21560); assay: cross-linking + affinity purification with mass spectrometry; ALFA-XLP of Cbp3-ALFA: isolated mitochondria treated with 200 μM MBS or BMOE, 30 min 30°C; lysis with 8 M urea, ALFA selector beads, washes with SDS and 6 M urea; compared to a control without crosslinking
T2 sequence: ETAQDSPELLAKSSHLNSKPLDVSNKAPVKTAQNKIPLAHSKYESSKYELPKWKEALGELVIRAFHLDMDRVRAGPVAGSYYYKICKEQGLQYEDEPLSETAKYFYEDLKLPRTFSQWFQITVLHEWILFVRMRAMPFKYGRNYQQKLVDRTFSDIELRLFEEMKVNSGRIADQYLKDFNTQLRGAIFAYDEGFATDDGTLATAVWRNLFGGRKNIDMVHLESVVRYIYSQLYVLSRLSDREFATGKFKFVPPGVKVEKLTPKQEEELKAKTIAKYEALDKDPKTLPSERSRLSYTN

[3] = target: T3, Mrx4-GFP-ALFA (S. cerevisiae) (UniProt Q12467); assay: cross-linking + affinity purification with mass spectrometry; ALFA-XLP of Mrx4-GFP-ALFA: isolated mitochondria treated with the crosslinker MBS, compared to DMSO; also WT compared to the cob::ARG8 background; lysis with 8 M urea, ALFA selector beads, washes with SDS and 6 M urea
T3 sequence: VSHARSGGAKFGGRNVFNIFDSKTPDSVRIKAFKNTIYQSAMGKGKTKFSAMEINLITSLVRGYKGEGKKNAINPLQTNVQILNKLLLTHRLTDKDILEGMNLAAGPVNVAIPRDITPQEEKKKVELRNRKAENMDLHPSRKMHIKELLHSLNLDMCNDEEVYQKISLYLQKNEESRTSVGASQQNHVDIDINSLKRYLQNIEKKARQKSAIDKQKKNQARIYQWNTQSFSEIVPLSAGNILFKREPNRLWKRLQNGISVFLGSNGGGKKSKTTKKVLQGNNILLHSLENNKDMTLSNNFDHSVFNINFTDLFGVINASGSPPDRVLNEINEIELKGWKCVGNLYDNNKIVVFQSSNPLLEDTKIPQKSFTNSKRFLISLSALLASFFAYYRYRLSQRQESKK

[4] = target: T4, Cbs2-BirA* (S. cerevisiae) (UniProt P14905); assay: proximity labelling; Bio-ID: C-terminal BirA* fusions in yeast grown overnight in YPG or YPGal with 50 μM biotin; mitochondria lysed in 1% SDS, streptavidin beads, mass spectrometry; compared to a Kgd4-BirA* control, or WT compared to mrx4Δ
T4 sequence: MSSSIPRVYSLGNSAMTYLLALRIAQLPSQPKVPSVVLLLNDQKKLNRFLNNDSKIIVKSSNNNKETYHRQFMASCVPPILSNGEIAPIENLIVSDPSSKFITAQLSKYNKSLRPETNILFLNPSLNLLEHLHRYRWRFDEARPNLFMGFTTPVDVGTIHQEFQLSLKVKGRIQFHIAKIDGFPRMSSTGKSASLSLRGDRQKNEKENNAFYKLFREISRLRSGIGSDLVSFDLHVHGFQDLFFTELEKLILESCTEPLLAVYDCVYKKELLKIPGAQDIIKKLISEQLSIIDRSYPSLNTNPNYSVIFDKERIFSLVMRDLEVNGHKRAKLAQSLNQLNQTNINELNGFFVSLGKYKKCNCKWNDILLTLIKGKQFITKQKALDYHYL

Row | Binder | binding [1] | binding [2] | binding [3] | binding [4]
1 | Cbp6 (protein, UniProt P07253 1-162) MSSSQVVRDSAKKLVNLLEKYPKDRIHHLVSFRDVQIARFRRVAGLPNVDDKGKSIKEKKPSLDEIKSIINRTSGPLGLNKEMLTKIQNKMVDEKFTEESINEQIRALSTIMNNKFRNYYDIGDKLYKPAGNPQYYQRLINAVDGKKKESLFTAMRTVLFGK | binds | binds | binds | –
2 | Cbp3 (protein, UniProt P21560 39-335) ETAQDSPELLAKSSHLNSKPLDVSNKAPVKTAQNKIPLAHSKYESSKYELPKWKEALGELVIRAFHLDMDRVRAGPVAGSYYYKICKEQGLQYEDEPLSETAKYFYEDLKLPRTFSQWFQITVLHEWILFVRMRAMPFKYGRNYQQKLVDRTFSDIELRLFEEMKVNSGRIADQYLKDFNTQLRGAIFAYDEGFATDDGTLATAVWRNLFGGRKNIDMVHLESVVRYIYSQLYVLSRLSDREFATGKFKFVPPGVKVEKLTPKQEEELKAKTIAKYEALDKDPKTLPSERSRLSYTN | – | – | binds | –
3 | Bca1 (protein, UniProt Q08023 26-583) AKQPQYDEAELFAENINHGAYKAKKRPSDEHFQWPEKSPDQITKESELQWERMAKLSAVGQGILILVVVGGLGTAYLRWPELKSWWLIKMNGGRINATQEQSGQDSLEKLIRQKAKNLLREIPQVPAFQLGIDHPGVYIWGRCHSKDSLFPVRVPNLDGRKFRDILLAPSDDFNTNFAIDEKGDLISWDDLGQTKTILPDQDLTSMKYSSHFLYALNKKGEILVIPIRTPDLIASQVSSRRSKLLPWKTKLRYDWKLQTNQIFNGKEGEKRVVQFDAGSHHLVLLSNLGKAYCCATGNDQKQAQVSKGQFGIPTFSQFDEFPPNNQLFEIELLNKFKHEGEDVVRKREIKKIACGSYHTLAIDKTGEIYAFGWNRFGQLALPISYNLEYVSFPRSVTHAFKPHFPGMTNWKCVDIHCDDETSFVTIRKPGSTSDHHYFAFGNGLFGELGNNTFKNSQCDPIKIKSDDKKLTNWSCGSHCVFTETEQENEVIAWGNNDHGQLGIGKKTMKCAKPMNIPEVLKPGQDTTDLDSIYNSKLHLKKEQRVVTNGNKSCLYWRV | binds | – | binds | –

Results, then the binder that gave them:

Row | binding [1] | binding [2] | binding [3] | binding [4] | Binder
4 | binds | binds | – | binds | Mrx4 (protein, UniProt Q12467 28-430) VSHARSGGAKFGGRNVFNIFDSKTPDSVRIKAFKNTIYQSAMGKGKTKFSAMEINLITSLVRGYKGEGKKNAINPLQTNVQILNKLLLTHRLTDKDILEGMNLAAGPVNVAIPRDITPQEEKKKVELRNRKAENMDLHPSRKMHIKELLHSLNLDMCNDEEVYQKISLYLQKNEESRTSVGASQQNHVDIDINSLKRYLQNIEKKARQKSAIDKQKKNQARIYQWNTQSFSEIVPLSAGNILFKREPNRLWKRLQNGISVFLGSNGGGKKSKTTKKVLQGNNILLHSLENNKDMTLSNNFDHSVFNINFTDLFGVINASGSPPDRVLNEINEIELKGWKCVGNLYDNNKIVVFQSSNPLLEDTKIPQKSFTNSKRFLISLSALLASFFAYYRYRLSQRQESKK
5 | – | – | binds | – | Cbs2 (protein, UniProt P14905 1-389) MSSSIPRVYSLGNSAMTYLLALRIAQLPSQPKVPSVVLLLNDQKKLNRFLNNDSKIIVKSSNNNKETYHRQFMASCVPPILSNGEIAPIENLIVSDPSSKFITAQLSKYNKSLRPETNILFLNPSLNLLEHLHRYRWRFDEARPNLFMGFTTPVDVGTIHQEFQLSLKVKGRIQFHIAKIDGFPRMSSTGKSASLSLRGDRQKNEKENNAFYKLFREISRLRSGIGSDLVSFDLHVHGFQDLFFTELEKLILESCTEPLLAVYDCVYKKELLKIPGAQDIIKKLISEQLSIIDRSYPSLNTNPNYSVIFDKERIFSLVMRDLEVNGHKRAKLAQSLNQLNQTNINELNGFFVSLGKYKKCNCKWNDILLTLIKGKQFITKQKALDYHYL
6 | – | – | – | binds | Sov1 (protein, UniProt Q04748 32-898) ASHIPEVLNKTIIGPDEPEKCLILKGKTSEEIENNLLSNKKFQEINPLDTIQETFIQYLKFCNETNFKRSNKNLNRLKKTLESKDSNSTVKINAVFNYLLEECDLEIKRLNTTGQTQVYNEEKGNEDDLEQSIMNDIFRSAQEQFEDQEGHIPLRSTSFLLEILKSFNERFNGIIKPKESITEMVTFSQLAQAFEVVKLIPVQEMKEKGIYLVGNLLYGTGKVRLDPINESFYIESLLVFGNYKAAYSLFITNKDKVNERWWNELGLMITLRSNHLRNFRKLLAETDAKYSTKYSYLSPRVTKLSIRKYLSIGNVTEANILTDRFIKLVEEVGIIRMKDEQEELPTGVKNFQNEKHATEFLNELEIPSDHDYISIVDFHLYKRNIPMAAQLISKYMEIPGTTQEDAAFLLVKTKLNMLKDFEKLRNIFAQNKDYVVPENNVKMLQEAFESVITKYNTNSPIYNELLFENVSALTKSIVLTDFLEEFITKQASGQWMELNSVSRSRKFNGLLNILLGTGEEEKAYNILKKLEEASKKSKTDPDLLYNQFYSEVNAYHYAKFVEFYSLQIQNMKAQNTPSFRKKEFKQKVKSLLKRMQESEVIPNAVFLREILNFYDSMYDFNSSFEIINPLLESKQQVSSESSLSTSNPCRFYNRRIITKPLYHKIWSVYCHYYHVLQNNSRILSKKSSIVKKLIKRQIKIHPTCHPRVLFQMTAENGEILPDKTFSKLIVSTFMKSGDLEAIPAILTFLTKKFDLNIDYDLSMYILKGLKRQYLRDISNISKDACEYKLRKAELMNNESILKNIPQGTNQENTISHLIREILIFIKWKEKSDCSTFLMVEDAFKELGTEFTLLEELIEDVNKLKIKA
7 | binds | – | – | – | Mdm38 (protein, UniProt Q08179 57-573) STDKSKSVTKPVAPTSTDAPAKPKETLMVKVKHALKHYANGTKLLGYEIKVSTKLLIKFAQGYELSRRERNQLRRTMGDVFRLIPFSAFLIIPFAELFLPFALKLFPNLLPSTYESGKDKQAKRNKLIEIRKKTSEFLHETLEESNLITYNTIENAEKKQKFLNFFRKLYSAKEGKIMTFQHDEISAIAQMFKNDSVLDNLSRPQLAAMSKFMSLRPFGNDNMLRYQIRSKLKDIMNDDKTIDYEGVESLSQEELYQACVSRGMKAYGVSKEDLVDNLKVWLELRLRQKIPSVLMVLSSTFTFGGLPKENYSKAFSPLAEKKETKSKYDDLLDLYYDGILQVLSSIPDPVYNVAKLDVSESKSSAAETEAEKQVAEKKIKTEEKPEETAIPKEEATAKESVIATTASAVTPKLVVVNEKAETAKTEEISQEKENAEPTDSAEATEAEEKKTSDDNEFKLNVLKEQEELIKKEEEEAKQRASREHVPDDINLDEEEEAKSVPPIPADQAAKTFVIKKD

From publication PMC12242767
